Measured values as given in patent US7119115B2, “Indazole or indole derivatives, and use thereof in human medicine and more particularly in oncology” (Aventis Pharma S.A., priority 2001, dated 2006).
At least one compound was matched to its structure with a doubt left.

By UniProt entry, the sequences of proteins in these tests, tags left out.
UniProt P02550, whole entry: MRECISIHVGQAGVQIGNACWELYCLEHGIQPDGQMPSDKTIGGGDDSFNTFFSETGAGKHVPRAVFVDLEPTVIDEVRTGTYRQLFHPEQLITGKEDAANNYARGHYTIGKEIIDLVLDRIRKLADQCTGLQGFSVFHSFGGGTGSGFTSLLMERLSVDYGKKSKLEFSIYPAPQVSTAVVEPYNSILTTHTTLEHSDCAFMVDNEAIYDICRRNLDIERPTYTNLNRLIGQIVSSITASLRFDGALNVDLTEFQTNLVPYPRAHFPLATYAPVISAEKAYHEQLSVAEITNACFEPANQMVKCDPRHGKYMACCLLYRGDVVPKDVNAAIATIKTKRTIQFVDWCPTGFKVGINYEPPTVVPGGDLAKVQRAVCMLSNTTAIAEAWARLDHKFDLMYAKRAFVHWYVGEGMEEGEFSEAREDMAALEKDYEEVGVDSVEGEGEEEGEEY
UniProt P02554, whole entry: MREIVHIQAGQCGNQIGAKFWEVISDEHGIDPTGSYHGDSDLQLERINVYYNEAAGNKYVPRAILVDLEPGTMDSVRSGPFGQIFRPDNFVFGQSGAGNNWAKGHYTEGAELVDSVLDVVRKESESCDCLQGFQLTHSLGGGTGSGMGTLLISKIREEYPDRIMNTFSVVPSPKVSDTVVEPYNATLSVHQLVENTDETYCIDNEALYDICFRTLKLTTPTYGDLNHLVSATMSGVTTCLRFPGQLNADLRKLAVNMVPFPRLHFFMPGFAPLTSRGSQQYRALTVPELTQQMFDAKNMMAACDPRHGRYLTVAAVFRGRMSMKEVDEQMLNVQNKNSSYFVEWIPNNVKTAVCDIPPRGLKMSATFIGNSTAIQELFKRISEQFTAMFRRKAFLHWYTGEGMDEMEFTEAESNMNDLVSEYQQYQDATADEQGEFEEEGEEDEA

Target: T1, Tubulin (Sus scrofa, UniProt P02550+P02554)
T1 construct: Tubulin is purified from pig brain according to published methods; from tissue; host or cells: pig brain
Assay: Evaluation of the inhibition of tubulin polymerization (turbidimetry at 350 nm)
Assay type: biochemical
Settings: pig brain tubulin 10 μM
Method: Briefly, the brains are ground and centrifuged in an extraction buffer. The tubulin contained in the supernatant of the extract undergoes two successive cycles of polymerization at 37° C. and depolymerization at 4° C., before being separated from the MAPs (Microtubule Associated Proteins) by chromatography on a phosphocellulose P11 column (Whatman). […] It is stored in a buffer known as RB/2 30% glycerol, the composition of which is 50 mM MES-NaOH [2-(N-morpholino)ethanesulphonic acid], pH 6.8; 0.25 mM MgCl2; 0.5 mM EGTA; 30% glycerol (v/v), 0.2 mM GTP (guanosine-5′-triphosphate).
The polymerization of tubulin to microtubules is monitored by turbidimetry as follows: the tubulin is adjusted to a concentration of 10 μM (1 mg/ml) in RB/2 30% glycerol buffer to which 1 mM GTP and 6 mM MgCl2 are added. […] The increase in the turbidity of the solution is monitored at 350 nm.
The products are dissolved at 10 mM in DMSO and added at variable concentrations (0.5 to 10 μM) to the tubulin solution before polymerization.

CCOC(=O)c1n[nH]c2c1C=CC(c1ccccc1)(c1ccc(OC)c(OC)c1)C2 (racemic) [Example 10-2, Ethyl 6-(R,S)-6-(3,4-dimethoxyphenyl)-6-phenyl-6,7-dihydro-1H-indazole-3-carboxylate]
Tubulin Activity at 25 μM: +
